Source: the supplement of paper PMC12823440, “Inhibitors supercharge kinase turnover through native proteolytic circuits” (Nature, 2025)
Counter-ions that a name gives are not always drawn. Some of the results follow. Hit calls seldom repeat between salt and free forms of one compound.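 In K562 cells expressing nanoluciferase-fused kinases, luminescence was recorded at 4 h intervals between 2 and 18 h, normalized as percent of control with DMSO at 100% and a positive control at 0%. A significant (2 sigma) signal drop marks a time point as decreased. The authors' rule for a hit is not shown and takes in more than the number of time points.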

Sequences of proteins named here, by UniProt entry; tags and fusion partners are left off. A change or cut given only in a name is not applied to a line headed by its entry.
UniProt Q16288, whole entry, looked up: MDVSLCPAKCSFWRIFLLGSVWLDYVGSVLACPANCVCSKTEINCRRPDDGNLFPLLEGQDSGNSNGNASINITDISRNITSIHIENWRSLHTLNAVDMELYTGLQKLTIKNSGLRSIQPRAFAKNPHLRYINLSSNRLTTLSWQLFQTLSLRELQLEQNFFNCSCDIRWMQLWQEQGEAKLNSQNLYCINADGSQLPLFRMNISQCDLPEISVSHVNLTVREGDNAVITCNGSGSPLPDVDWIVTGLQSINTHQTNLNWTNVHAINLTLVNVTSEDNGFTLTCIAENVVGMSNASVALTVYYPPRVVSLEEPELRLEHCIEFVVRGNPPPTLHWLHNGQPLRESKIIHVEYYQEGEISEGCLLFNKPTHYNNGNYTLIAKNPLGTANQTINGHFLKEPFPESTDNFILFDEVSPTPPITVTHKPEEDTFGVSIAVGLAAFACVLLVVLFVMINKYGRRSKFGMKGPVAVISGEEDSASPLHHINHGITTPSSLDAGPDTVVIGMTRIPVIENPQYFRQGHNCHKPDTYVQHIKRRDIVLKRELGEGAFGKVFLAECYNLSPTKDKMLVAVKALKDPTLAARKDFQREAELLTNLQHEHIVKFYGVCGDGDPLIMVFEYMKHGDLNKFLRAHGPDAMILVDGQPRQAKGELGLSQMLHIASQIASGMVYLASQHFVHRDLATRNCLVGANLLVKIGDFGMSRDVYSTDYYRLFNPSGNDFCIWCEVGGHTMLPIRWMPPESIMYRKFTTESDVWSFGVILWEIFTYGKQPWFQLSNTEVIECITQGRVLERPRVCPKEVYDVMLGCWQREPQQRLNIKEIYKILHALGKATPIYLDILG
UniProt Q96KB5: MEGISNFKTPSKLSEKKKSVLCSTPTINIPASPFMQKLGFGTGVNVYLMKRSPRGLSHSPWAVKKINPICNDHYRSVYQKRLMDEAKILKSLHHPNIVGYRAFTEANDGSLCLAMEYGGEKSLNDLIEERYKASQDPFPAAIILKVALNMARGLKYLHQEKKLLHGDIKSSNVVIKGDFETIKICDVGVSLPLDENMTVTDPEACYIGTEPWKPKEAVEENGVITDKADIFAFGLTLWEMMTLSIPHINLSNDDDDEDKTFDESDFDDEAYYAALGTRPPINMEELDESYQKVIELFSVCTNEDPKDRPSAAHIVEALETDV
UniProt P09619, whole entry: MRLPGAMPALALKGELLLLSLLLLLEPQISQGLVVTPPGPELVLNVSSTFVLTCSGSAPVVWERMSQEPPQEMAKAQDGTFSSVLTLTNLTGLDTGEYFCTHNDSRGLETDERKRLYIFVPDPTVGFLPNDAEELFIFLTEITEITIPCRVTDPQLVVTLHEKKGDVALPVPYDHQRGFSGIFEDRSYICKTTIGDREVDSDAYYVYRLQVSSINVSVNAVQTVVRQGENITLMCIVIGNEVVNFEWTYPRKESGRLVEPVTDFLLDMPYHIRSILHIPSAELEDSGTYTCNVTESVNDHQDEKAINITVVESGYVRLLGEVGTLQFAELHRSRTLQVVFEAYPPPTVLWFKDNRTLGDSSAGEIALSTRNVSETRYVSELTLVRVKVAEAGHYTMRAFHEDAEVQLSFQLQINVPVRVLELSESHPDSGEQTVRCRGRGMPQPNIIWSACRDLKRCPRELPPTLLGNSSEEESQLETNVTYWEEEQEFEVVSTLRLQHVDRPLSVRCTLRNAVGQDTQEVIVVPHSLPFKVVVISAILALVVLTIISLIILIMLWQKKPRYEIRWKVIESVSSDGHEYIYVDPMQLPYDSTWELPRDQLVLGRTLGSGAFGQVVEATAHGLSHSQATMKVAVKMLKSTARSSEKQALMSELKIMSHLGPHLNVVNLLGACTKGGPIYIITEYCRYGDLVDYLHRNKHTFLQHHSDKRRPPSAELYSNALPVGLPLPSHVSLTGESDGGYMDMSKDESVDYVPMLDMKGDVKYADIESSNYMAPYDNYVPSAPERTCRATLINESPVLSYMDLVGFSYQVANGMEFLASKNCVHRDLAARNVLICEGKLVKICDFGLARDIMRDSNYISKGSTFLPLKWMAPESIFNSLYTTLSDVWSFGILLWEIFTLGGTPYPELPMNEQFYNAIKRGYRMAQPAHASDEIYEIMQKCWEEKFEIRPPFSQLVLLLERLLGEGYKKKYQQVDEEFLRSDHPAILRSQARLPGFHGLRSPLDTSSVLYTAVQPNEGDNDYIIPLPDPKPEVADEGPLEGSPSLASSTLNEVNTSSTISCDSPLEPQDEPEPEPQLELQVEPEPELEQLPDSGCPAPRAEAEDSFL
UniProt O15530: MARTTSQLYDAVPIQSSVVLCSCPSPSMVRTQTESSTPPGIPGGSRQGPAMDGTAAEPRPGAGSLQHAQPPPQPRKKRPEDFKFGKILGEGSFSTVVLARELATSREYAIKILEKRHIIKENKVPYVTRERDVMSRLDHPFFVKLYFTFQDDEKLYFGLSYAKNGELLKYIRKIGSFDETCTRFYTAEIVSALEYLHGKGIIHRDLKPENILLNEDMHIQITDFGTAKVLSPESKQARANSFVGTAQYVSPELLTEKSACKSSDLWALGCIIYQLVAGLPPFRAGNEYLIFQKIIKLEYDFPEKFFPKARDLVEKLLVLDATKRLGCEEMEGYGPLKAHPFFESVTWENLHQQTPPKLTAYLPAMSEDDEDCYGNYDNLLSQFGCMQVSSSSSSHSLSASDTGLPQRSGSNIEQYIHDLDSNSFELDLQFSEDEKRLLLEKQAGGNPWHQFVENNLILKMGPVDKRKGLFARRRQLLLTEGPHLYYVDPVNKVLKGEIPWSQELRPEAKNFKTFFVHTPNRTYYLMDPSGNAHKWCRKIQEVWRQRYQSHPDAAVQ
UniProt P42356, whole entry, looked up: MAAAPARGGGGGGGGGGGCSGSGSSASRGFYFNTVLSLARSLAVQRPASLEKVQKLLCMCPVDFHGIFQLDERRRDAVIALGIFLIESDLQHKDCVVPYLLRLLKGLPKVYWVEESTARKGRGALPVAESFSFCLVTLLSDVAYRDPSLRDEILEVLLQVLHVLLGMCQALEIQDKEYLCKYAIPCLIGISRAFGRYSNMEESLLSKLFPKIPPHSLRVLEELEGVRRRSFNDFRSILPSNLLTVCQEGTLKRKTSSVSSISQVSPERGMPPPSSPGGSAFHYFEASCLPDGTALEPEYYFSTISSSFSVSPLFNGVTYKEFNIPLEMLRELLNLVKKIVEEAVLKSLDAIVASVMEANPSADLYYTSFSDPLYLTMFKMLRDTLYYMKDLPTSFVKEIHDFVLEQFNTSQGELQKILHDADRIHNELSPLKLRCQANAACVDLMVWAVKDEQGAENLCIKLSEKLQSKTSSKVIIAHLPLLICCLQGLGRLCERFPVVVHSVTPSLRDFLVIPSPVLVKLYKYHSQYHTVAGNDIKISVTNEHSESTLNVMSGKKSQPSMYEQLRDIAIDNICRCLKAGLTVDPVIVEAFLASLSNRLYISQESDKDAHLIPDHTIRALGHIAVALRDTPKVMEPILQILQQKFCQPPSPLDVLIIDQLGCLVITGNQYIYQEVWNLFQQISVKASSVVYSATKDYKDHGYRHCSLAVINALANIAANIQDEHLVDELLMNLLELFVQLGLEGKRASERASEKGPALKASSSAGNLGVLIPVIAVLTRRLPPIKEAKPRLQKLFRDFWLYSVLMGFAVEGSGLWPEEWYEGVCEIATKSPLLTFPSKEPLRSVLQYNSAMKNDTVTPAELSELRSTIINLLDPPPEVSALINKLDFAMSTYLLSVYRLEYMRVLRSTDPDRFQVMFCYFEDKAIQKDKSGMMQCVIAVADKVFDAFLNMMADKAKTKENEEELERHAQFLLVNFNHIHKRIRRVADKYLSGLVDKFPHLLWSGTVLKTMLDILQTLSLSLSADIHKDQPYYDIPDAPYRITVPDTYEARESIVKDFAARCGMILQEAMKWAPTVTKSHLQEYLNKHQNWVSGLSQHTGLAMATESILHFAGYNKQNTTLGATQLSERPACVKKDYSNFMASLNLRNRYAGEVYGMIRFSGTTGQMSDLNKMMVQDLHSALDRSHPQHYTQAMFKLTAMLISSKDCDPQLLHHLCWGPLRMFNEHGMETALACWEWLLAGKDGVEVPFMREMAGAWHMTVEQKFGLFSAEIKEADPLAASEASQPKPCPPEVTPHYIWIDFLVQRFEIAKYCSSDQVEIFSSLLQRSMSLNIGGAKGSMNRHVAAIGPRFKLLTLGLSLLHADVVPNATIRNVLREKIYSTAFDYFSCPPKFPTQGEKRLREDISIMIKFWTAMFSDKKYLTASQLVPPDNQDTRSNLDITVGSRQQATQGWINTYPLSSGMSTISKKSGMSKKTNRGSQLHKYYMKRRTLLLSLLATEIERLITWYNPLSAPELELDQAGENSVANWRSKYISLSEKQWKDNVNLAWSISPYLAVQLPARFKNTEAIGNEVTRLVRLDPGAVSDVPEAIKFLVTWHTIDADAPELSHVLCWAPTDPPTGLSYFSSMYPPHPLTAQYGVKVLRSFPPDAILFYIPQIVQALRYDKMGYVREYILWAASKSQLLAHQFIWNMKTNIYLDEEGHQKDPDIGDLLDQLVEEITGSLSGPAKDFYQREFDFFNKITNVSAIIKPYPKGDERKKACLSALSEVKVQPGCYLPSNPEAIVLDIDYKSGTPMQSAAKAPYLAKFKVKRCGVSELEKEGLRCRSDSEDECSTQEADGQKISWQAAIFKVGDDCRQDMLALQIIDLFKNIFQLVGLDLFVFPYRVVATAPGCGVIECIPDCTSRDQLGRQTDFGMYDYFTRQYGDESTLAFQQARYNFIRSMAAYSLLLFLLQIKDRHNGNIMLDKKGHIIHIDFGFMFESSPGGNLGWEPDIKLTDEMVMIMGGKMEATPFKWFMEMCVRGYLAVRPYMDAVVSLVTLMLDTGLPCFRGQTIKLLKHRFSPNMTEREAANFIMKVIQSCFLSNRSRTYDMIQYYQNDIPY
UniProt Q9UBF8: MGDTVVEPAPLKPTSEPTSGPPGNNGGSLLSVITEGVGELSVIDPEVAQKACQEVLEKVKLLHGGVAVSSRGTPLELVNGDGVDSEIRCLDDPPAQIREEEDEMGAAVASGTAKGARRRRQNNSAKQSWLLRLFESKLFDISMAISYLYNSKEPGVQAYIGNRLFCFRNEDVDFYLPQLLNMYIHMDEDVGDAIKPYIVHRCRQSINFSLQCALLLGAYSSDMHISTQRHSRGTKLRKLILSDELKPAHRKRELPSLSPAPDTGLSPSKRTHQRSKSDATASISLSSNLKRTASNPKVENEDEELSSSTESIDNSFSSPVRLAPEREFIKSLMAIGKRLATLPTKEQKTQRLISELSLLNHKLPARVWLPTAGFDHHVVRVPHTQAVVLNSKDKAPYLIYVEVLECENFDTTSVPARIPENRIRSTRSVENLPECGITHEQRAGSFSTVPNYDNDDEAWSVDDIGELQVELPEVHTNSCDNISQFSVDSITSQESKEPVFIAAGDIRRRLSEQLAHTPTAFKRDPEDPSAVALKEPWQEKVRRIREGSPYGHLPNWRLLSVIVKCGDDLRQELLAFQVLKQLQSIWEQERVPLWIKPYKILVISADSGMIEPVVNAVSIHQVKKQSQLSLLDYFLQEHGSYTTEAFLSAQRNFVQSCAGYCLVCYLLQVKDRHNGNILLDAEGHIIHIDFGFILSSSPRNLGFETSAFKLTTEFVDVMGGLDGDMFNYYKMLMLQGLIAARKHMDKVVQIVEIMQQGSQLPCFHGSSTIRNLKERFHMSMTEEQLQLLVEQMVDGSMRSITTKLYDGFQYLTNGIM
UniProt Q13131: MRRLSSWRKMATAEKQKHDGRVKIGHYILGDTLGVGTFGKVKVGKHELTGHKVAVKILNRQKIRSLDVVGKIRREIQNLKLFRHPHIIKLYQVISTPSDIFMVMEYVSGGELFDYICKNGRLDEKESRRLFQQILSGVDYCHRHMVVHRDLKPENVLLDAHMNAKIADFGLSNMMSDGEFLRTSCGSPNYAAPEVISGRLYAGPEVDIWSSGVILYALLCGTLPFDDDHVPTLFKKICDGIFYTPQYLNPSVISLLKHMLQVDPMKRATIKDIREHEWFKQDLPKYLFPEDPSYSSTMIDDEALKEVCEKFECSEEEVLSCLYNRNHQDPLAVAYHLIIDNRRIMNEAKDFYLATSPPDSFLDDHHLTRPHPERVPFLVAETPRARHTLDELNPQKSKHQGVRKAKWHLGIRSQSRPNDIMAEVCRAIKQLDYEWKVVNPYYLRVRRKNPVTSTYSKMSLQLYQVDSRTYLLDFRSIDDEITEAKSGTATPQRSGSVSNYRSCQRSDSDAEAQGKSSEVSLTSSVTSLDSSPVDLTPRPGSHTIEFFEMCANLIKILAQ

How the values were obtained:
Experiment in all cases: number of time points (of 5) at which kinase-Nluc abundance scored as decreased, DMSO-normalised (count); higher = more persistent destabilization
Settings in all cases: K562; 2-18 h
NTRK3 = NTRK3 (UniProt Q16288)
PAK4 = PAK4 (UniProt O96013)
PBK = PBK (UniProt Q96KB5)
PDGFRB = PDGFRB (UniProt P09619)
PDK1 = PDK1 (UniProt Q15118)
PDPK1 = PDPK1 (UniProt O15530)
PIK4CA = PIK4CA (UniProt P42356)
PIK4CB = PIK4CB (UniProt Q9UBF8)
PLK1 = PLK1 (UniProt P53350)
PRKAA1 = PRKAA1 (UniProt Q13131)

Compound | number of time points (NTRK3) | number of time points (PAK4) | number of time points (PBK) | number of time points (PDGFRB) | number of time points (PDK1) | number of time points (PDPK1) | number of time points (PIK4CA) | number of time points (PIK4CB) | number of time points (PLK1) | number of time points (PRKAA1)
Cn1cc(-c2c[nH]c3ncnc(N4CCOCC4)c23)cc1C#N (10 µM) | 0 | 0 | 0 | 0 | 0 | 0 | 0 | 0 | 0 | 0
CCN(CC)c1ccc2cc(-c3nc4cc(C)ccc4o3)c(=O)oc2c1 (10 µM) | 0 | 0 | 0 | 0 | 0 | 0 | 0 | 0 | 0 | 0
CCc1cccc(CC)c1NC(=O)N1Cc2[nH]nc(NC(=O)c3ccc(N4CCN(C)CC4)cc3)c2C1 (2.5 µM) | 2 | 0 | 0 | 2 | 0 | 4 | 2 | 2 | 0 | 2
N[C@@H](CCC(=O)O)C(=O)N[C@@H](Cc1c[nH]c2ccccc12)C(=O)O [Oglufanide] (10 µM) | 0 | 0 | 0 | 0 | 0 | 0 | 0 | 0 | 0 | 0
Cc1ccc(NC(=O)c2ccnc(C(F)(F)F)c2)cc1-c1cc(OCCO)nc(N2CCOCC2)c1 (10 µM) | 0 | 0 | 0 | 0 | 0 | 0 | 0 | 0 | 0 | 0
Cc1cnc(-c2ccc(-c3ccc(NC(=O)Nc4cccc(C(F)(F)F)c4)cc3F)c3c2C(=O)NC3)[nH]1 (10 µM) | 0 | 0 | 0 | 4 | 0 | 0 | 0 | 2 | 0 | 0
CC(C)CNc1ccnc(NCc2csc(-c3ccccc3)n2)n1 [KHS101 hydrochloride] (2.5 µM) | 0 | 0 | 0 | 0 | 0 | 0 | 0 | 2 | 0 | 0
O=C(O)c1cc(=O)c2c(OCC(O)COc3cccc4oc(C(=O)O)cc(=O)c34)cccc2o1 [Cromolyn (sodium)] (10 µM) | 0 | 0 | 0 | 0 | 0 | 0 | 0 | 0 | 0 | 0
C=CC(=O)Nc1cc(Nc2nccc(-n3cc(CN(C)C)c(-c4ccccc4)n3)n2)c(OC)cc1N1CCOCC1 [Lazertinib] (10 µM) | 0 | 0 | 0 | 0 | 0 | 0 | 0 | 0 | 0 | 0
CCn1c(=O)c(-c2cc[nH]n2)cc2c(C)nc(N)nc21 [Voxtalisib] (10 µM) | 0 | 0 | 0 | 0 | 0 | 0 | 0 | 2 | 0 | 0
CNC(=O)c1ccccc1Oc1nc(Nc2cc(OC)c(OC)c(OC)c2)ncc1Br (2.5 µM) | 0 | 0 | 0 | 0 | 0 | 0 | 0 | 0 | 0 | 0
